Measured values published in PubChem BioAssay AID901 (National Center for Advancing Translational Sciences (NCATS), 2007).
Screen size: about 120,000 compounds; fewer than 10 were called active. All entries are inconclusive by the source's own rule. Clear calls are listed elsewhere. The call rests on the fitted dose curve; in most records, active means well fitted curve in the direction sought with a large enough effect in the signal ratio (not every such curve was filed as active); inconclusive means small, poorly fitted or top-dose-only effect, or a change in a side signal; inactive means no such curve, though single readings can be large or run the other way; the % refers to the signal ratio.

Amino acid sequences for entries named in this document (tags omitted).
UniProt P97697, whole entry: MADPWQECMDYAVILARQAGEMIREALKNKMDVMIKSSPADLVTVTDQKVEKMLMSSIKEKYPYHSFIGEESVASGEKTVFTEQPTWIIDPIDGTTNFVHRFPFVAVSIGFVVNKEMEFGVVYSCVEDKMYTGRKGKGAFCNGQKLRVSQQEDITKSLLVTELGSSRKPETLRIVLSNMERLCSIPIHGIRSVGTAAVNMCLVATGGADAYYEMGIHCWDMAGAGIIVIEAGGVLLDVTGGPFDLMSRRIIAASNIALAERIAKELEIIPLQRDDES

Target: Inositol monophosphatase 1 (Rattus norvegicus) (UniProt P97697)
Assay: qHTS Assay for Identifying the Cell-Membrane Permeable IMPase Inhibitors
Details: CHO-M1 cells, IP1 accumulation, HTRF TR-FRET ratio
Description: NCGC IMPase Assay Overview
Lithium has been widely used for the treatment of bipolar disorder. But lithium has a narrow therapeutic index and it can cause side effects such as thirst, weight gain, tremor, polyuria and memory problems. Although the mechanism for lithium action in treatment of bipolar disorder is still not fully understood, inhibition of inositol monophosphatase (IMPase) and the subsequent depletion of the inositol pool in living cells have been implicated as the primary therapeutic benefit of lithium therapy. Therefore, a selective IMPase inhibitor with reduced side effects might be a good drug candidate to replace lithium for the treatment of bipolar disorder. […]
To identify new cell-permeable IMPase inhibitors, we developed a cell-based IMPase assay in which the cytosolic IP1 is measured by a time-resolved fluorescence resonance energy transfer (TR-FRET) assay. […]
A Chinese hamster ovary (CHO) cell line stably expressing the M1 receptor (CHO-M1) was obtained from ATCC and maintained in F-12 Kaighn's media (Invitrogen, Carlsbad, CA, 21127) supplemented with 10 % FBS, 100 units/ml penicillin, 100 ug/ml streptomycin and 250 ug/ml geneticin at 37C, 5% CO2 in a humidified atmosphere. […] AC50 values were determined from concentration-response data modeled with the standard Hill equation. […]
(7) Detect the assay plate (Ex = 320, Em1 =665 and Em2 620) in a ViewLux plate reader. […]

Structure (SMILES)	Potency
CCOc1ncccc1C(=O)NCC1(N2CCOCC2)CCCCC1	inconclusive: 15.8 nM
